Results: the supplement of paper PMC8256030
The other results are listed elsewhere or left out. This data set is noisy: repeats of one test often differ as much as different tests do.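 HEK293T cells were given each compound shortly before transfection with a reporter in which red mCherry is followed by the SARS-CoV-2 frameshift element and then GFP in the −1 frame, so GFP appears only after frameshifting.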

Key:
[1] = tested on: SARS-CoV-2 -1 PRF reporter mCherry-FSE-GFP(-1); assay: mCherry (red) intensity as percent of control; higher = higher upstream reporter expression; conditions: 10 µM; 24 h; HEK293T
[2] = tested on: SARS-CoV-2 -1 PRF reporter mCherry-FSE-GFP(-1); assay: percent effect, decrease of GFP/mCherry ratio (-1 PRF reporter) relative to controls; higher = stronger frameshift inhibition; conditions: 10 µM; 24 h; HEK293T

Row | Compound | mCherry [1] [%] | percent effect [2] [%]
1 | CCN(CC)CCNC(=O)COc1ccc(OC)cc1 | 89.2 | -4.08
2 | Nc1ccc(C(=O)OCC(O)CO)cc1 (configuration not stated) [lisadimate] | 81.5 | -8.49
3 | CO[C@H]1C[C@H](O[C@H]2[C@H](C)[C@@H](O[C@@H]3O[C@H](C)C[C@H](N(C)C)[C@H]3OC(C)=O)[C@@H](C)C[C@@]3(CO3)C(=O)[C@H](C)[C@@H](OC(C)=O)[C@@H](C)[C@@H](C)OC(=O)[C@@H]2C)O[C@@H](C)[C@@H]1OC(C)=O [troleandomycin] | 99.7 | 0.066
4 | Cc1ccccc1-c1cc(N2CCN(C)CC2)ncc1N(C)C(=O)C(C)(C)c1cc(C(F)(F)F)cc(C(F)(F)F)c1 [netupitant] | 89.8 | -0.352
5 | CCOc1ccc(/N=C(\C)Nc2ccc(OCC)cc2)cc1 [phenacaine] | 114 | -2.29
6 | O=C(CCCN1CCC(C(=O)c2ccc(F)cc2)CC1)c1ccc(F)cc1 [lenperone] | 57.7 | -1.09
7 | CO/N=C(\C(=O)N[C@@H]1C(=O)N2C(C(=O)O)=C(C[N+]3(C)CCCC3)CS[C@H]12)c1csc(N)n1 | 119 | -6.59
8 | Nc1nc2c(ncn2COC(CO)CO)c(=O)[nH]1 [Ganciclovir] | 80.7 | 1.09
9 | Cc1ccc(Cl)c(Nc2ccccc2C(=O)O)c1Cl | 104 | 2.2
10 | NS(=O)(=O)c1ccc(NC(=O)CCC(=O)O)cc1 [sulfasuccinamide] | 79 | -7.01
11 | CC1(C)S[C@@H]2[C@H](NC(=O)[C@H](NC(=O)N3CCNC3=O)c3ccccc3)C(=O)N2[C@H]1C(=O)O | 85.7 | -0.723

Arranged by heavy-atom count (low to high): some entries from above
Row | Compound | mCherry [1] [%] | percent effect [2] [%]
10 | NS(=O)(=O)c1ccc(NC(=O)CCC(=O)O)cc1 [sulfasuccinamide] | 79 | -7.01
6 | O=C(CCCN1CCC(C(=O)c2ccc(F)cc2)CC1)c1ccc(F)cc1 [lenperone] | 57.7 | -1.09
4 | Cc1ccccc1-c1cc(N2CCN(C)CC2)ncc1N(C)C(=O)C(C)(C)c1cc(C(F)(F)F)cc(C(F)(F)F)c1 [netupitant] | 89.8 | -0.352
